Reference: PubChem BioAssay AID1671190 (National Center for Advancing Translational Sciences (NCATS), 2021)
Among all 580,000 compounds or so, about 6,100 (1.1%) were called active. The shares of active, inactive and inconclusive entries below differ from those in the screen. Calls follow the shape of the dose curve; as a rule, active = well fitted inhibition curve with a large enough effect; inconclusive = small, poorly fitted or top-dose-only effect, or another doubt; inactive = no such curve, though single readings can be large or run the other way. A potency beside an inconclusive call is a rough fit, not a confirmed value.

By UniProt entry, the sequences of proteins in these tests, tags left out. Where a name states a change or a piece, a line headed by the entry shows the natural chain unless it says otherwise.
UniProt P18054: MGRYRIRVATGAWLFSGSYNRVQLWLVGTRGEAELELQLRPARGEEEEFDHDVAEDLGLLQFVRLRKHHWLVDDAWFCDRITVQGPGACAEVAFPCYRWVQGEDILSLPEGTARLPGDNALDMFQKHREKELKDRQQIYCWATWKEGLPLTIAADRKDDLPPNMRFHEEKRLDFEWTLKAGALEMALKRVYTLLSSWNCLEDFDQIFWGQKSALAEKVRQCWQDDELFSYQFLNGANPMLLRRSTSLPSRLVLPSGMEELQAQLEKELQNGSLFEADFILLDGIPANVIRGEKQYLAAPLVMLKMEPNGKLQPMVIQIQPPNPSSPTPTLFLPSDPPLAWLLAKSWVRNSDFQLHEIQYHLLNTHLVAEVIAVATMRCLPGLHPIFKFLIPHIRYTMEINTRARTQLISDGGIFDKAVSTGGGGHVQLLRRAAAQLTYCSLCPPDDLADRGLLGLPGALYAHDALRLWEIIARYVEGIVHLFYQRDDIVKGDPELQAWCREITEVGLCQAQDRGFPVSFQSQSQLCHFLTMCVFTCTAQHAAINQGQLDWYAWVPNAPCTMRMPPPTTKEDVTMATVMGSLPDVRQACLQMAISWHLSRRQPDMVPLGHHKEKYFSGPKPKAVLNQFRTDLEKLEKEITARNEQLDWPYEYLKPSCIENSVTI

target: Polyunsaturated fatty acid lipoxygenase ALOX12 (Homo sapiens) (UniProt P18054); test: Primary qHTS assay for inhibitors of human arachidonate 12S-lipoxygenase (ALOX12): Round 2; settings: purified 12hLO, xylenol orange hydroperoxide absorbance; activity change, negative = inhibition: at 108 µM (top of the series) unless noted
Procedure, shortened: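 Hydroperoxide product was detected by ferrous iron/xylenol orange as the 573 to 405 nm absorbance ratio. Arachidonic acid at 40 uM (final) was turned over for 30 min at room temperature by 150 nM human 12hLO, pH 7.0 Hepes buffer, after 15 min compound preincubation.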
% is scaled to controls: 0 for no effect and ±100 for the full control effect; potency is read from the fitted curve at half-maximal effect.

| SMILES | Potency | activity change, negative = inhibition |
| --- | --- | --- |
| CC(C)CN(C(=O)CSc1ncnc2sccc12)C1CCS(=O)(=O)C1 (stereo unspecified) | inconclusive: 100 µM [inhibitor, single point] | – |
| CC(C)c1nnnn1[C@H]1CO[C@H]2[C@@H]1OC[C@H]2OC(=O)Nc1ccc(Oc2ccccc2)cc1 | – | inactive: -11.6% |
| CN(c1ccccc1C(=O)Nc1ccc(S(=O)(=O)N2CCCCC2)cc1)S(C)(=O)=O | inconclusive: 0.562 µM [inhibitor, full curve, poor fit] | – |
| COc1cc2nc(Nc3ccc(C)c(C)c3)nc(N)c2cc1OC | inconclusive: 50.1 µM [inhibitor, partial curve, poor fit] | – |
| O=C(CCN1CCOCC1)N1CCc2c([nH]c3ccccc23)C1c1cccc(Cl)c1 (stereo unspecified) | inconclusive: 44.7 µM [inhibitor, partial curve, poor fit] | – |
| Cc1ccc(NC(=O)COC(=O)C2CCN(c3ccc(C(F)(F)F)cn3)CC2)cc1C | inconclusive: 70.8 µM [inhibitor, partial curve, poor fit] | – |
| O=C1CSC(c2cccc(C(F)(F)F)c2)N1c1ccc(Br)cc1 (stereo unspecified) | inconclusive: 79.4 µM [inhibitor, partial curve, poor fit] | – |
| Cc1ccc(NC(=O)c2sccc2SCc2cccc(C(F)(F)F)c2)cc1 | inconclusive: 35.5 µM [inhibitor, partial curve, poor fit] | – |
| N#Cc1nc(-c2ccco2)oc1N1CCN(C(=O)c2ccccc2F)CC1 | inconclusive: 35.5 µM [inhibitor, partial curve, poor fit] | – |
| O=C1NC[C@@H](CCCCN2C[C@H](Cc3ccc(O)cc3)N(Cc3ccccc3)C(=O)C2=O)N(CCc2ccc(O)cc2)C1=O | inconclusive: 112 µM [inhibitor, partial curve, poor fit] | – |
| Cc1noc(C)c1C(=O)N1CCC2(CC1)CN(c1cccc(-c3ccccc3)c1)C2 | inconclusive: 35.5 µM [inhibitor, single point] | – |
| COc1ccc(-c2nc3ccc(Cl)cn3c2NC2CCCCC2)cc1SC1CCCCC1 | inconclusive: 79.4 µM [inhibitor, partial curve, poor fit] | – |
| Cc1ccc(C)c2[nH]c(C(=O)O)cc12 | – | inactive: -3.62% |
| CCOC(=O)CN1CCCc2nc(-c3ccc(OC)cc3)ccc21 | inconclusive: 15.8 µM [inhibitor, partial curve, poor fit] | – |
| O=C(c1ccccc1NS(=O)(=O)c1ccc([N+](=O)[O-])cc1[N+](=O)[O-])N1O[C@@H]2C=C[C@H]1C2 | – | inactive: -16.1% |
| S=c1[nH]nc(-c2ccc(Cl)cc2)n1/N=C/C=C/c1ccco1 | active: 14.1 µM | – |

Single entries from the results shown.
Value of Cc1noc(C)c1C(=O)N1CCC2(CC1)CN(c1cccc(-c3ccccc3)c1)C2 under Potency: inconclusive: 35.5 µM [inhibitor, single point]
Value of O=C1NC[C@@H](CCCCN2C[C@H](Cc3ccc(O)cc3)N(Cc3ccccc3)C(=O)C2=O)N(CCc2ccc(O)cc2)C1=O under Potency: inconclusive: 112 µM [inhibitor, partial curve, poor fit]
